Measurements: the supplement of paper PMC10849652
The other results are listed elsewhere or left out.

Sequences of proteins named here, by UniProt entry; tags and fusion partners are left off. A change or cut given only in a name is not applied to a line headed by its entry.
UniProt Q9NVN3: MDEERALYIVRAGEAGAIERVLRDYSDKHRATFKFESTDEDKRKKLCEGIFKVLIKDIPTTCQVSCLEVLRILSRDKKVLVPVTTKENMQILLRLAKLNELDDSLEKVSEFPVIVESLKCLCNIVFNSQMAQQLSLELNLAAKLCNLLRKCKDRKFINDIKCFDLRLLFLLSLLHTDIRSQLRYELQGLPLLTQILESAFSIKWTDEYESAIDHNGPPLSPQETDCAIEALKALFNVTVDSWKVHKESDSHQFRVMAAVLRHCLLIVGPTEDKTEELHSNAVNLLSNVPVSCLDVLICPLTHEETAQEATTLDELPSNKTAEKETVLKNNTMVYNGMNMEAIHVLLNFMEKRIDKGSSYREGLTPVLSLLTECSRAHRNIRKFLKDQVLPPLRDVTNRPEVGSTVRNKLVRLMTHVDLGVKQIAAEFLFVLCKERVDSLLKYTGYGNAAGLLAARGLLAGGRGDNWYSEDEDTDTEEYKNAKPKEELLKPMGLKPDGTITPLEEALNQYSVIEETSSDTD
UniProt Q6NTF9: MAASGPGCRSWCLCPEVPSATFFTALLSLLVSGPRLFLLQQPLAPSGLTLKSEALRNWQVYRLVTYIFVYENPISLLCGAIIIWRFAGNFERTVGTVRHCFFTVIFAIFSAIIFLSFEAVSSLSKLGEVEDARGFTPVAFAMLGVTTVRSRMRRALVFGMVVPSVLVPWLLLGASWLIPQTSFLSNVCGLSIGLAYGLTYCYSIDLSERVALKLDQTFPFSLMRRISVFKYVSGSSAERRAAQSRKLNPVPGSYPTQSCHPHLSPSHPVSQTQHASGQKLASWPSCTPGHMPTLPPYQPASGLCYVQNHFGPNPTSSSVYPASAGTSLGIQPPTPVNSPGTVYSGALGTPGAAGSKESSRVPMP
UniProt P09455: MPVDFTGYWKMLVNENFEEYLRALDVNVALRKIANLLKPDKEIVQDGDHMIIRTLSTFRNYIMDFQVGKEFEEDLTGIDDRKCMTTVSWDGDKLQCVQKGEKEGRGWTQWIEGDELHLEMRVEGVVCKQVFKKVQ
UniProt Q8WU17: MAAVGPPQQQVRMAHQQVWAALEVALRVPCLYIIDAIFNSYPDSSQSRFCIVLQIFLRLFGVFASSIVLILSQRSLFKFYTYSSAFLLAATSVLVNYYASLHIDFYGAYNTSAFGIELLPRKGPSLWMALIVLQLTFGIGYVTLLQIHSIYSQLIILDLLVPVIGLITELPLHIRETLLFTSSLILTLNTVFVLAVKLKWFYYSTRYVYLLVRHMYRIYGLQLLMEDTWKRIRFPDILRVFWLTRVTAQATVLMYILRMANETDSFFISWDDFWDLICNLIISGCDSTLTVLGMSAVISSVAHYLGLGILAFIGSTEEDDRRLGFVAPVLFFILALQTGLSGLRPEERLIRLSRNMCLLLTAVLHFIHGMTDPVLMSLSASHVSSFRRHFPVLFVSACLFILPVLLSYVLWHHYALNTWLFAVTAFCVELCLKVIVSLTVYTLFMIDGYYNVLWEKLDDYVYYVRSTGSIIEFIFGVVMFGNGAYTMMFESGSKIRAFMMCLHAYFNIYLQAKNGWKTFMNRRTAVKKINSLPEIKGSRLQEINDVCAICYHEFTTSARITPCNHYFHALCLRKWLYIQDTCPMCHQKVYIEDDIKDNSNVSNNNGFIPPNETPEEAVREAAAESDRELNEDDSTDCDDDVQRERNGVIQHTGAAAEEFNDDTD
UniProt Q2KHR2: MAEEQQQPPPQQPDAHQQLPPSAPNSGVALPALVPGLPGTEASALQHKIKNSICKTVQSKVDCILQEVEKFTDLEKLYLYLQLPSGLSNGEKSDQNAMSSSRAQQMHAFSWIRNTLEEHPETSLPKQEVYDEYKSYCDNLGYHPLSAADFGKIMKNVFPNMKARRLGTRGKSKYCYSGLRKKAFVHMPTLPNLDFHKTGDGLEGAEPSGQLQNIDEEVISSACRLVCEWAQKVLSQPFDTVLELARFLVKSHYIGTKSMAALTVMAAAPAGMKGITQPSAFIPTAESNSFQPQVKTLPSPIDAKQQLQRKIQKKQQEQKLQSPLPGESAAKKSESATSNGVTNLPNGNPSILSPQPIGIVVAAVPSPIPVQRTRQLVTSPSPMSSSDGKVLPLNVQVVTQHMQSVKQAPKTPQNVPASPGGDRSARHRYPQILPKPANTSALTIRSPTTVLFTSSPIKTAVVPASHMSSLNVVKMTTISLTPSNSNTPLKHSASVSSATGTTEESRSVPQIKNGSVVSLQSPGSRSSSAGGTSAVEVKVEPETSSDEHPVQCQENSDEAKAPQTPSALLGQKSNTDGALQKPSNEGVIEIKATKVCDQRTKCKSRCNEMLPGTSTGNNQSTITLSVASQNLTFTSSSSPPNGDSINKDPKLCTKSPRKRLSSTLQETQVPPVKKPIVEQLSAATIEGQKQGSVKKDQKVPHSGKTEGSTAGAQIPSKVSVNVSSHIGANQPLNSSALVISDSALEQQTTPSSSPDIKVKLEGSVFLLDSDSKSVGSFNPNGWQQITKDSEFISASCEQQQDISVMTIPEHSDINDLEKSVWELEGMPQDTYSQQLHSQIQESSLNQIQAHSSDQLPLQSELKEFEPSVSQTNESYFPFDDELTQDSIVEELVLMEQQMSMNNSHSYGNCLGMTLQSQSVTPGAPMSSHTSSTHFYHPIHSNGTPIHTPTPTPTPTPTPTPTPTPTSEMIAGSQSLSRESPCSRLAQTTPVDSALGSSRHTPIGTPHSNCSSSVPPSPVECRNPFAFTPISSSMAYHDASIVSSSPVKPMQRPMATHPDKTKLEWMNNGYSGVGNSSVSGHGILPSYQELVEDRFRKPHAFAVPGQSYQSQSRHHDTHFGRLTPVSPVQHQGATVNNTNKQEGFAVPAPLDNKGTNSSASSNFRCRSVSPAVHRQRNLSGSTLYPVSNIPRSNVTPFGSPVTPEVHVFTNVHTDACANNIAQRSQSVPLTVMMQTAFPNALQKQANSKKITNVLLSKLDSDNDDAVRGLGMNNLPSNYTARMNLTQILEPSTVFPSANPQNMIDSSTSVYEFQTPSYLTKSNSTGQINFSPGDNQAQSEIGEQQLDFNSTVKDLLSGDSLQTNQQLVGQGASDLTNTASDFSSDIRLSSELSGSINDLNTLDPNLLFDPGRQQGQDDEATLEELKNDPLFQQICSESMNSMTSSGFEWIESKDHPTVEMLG
UniProt Q9Y3C5: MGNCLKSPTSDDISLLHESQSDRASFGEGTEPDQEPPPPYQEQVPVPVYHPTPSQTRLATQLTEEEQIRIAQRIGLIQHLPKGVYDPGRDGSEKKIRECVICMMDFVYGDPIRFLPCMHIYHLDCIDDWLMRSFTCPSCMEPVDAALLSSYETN
UniProt Q9ULI2: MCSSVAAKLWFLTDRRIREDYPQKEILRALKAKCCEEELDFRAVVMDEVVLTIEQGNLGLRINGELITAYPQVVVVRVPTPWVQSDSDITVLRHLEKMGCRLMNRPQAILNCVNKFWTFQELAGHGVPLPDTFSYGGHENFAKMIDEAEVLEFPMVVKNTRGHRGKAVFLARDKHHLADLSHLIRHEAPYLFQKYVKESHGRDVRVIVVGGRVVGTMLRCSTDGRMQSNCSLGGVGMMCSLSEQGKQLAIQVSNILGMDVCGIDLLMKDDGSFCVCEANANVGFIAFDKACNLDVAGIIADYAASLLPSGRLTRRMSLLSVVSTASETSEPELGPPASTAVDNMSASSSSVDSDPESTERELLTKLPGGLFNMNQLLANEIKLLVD
UniProt Q9Y225: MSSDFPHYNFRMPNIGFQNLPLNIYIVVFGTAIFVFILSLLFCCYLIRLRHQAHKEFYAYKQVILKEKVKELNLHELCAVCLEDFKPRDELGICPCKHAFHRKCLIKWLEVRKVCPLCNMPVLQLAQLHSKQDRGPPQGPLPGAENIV
UniProt Q9H4X1: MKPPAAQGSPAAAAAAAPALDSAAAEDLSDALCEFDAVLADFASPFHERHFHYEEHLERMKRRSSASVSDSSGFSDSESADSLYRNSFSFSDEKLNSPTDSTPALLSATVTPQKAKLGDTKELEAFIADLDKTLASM
UniProt Q86XS8: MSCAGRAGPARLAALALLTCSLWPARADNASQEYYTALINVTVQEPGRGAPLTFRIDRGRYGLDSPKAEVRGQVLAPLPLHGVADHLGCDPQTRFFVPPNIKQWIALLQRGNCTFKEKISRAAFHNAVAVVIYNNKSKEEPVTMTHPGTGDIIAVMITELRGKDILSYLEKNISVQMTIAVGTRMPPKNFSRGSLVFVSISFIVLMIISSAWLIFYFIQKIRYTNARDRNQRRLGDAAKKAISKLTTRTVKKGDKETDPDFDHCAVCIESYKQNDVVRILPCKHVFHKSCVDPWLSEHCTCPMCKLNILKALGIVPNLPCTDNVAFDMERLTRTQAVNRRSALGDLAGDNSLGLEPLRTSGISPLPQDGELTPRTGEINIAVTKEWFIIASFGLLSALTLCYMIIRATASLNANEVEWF
UniProt Q02161: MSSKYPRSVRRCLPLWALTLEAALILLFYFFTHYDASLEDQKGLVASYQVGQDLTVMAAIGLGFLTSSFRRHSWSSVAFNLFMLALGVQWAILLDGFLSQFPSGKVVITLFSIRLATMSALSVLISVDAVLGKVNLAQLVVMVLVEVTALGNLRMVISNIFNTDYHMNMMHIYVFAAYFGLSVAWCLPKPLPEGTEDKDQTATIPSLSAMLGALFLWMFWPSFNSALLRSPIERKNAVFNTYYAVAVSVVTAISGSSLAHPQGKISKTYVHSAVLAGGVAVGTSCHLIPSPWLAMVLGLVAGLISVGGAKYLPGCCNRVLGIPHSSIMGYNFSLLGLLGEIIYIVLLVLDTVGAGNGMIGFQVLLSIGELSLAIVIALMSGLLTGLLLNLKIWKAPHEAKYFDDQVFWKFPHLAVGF
UniProt O94762: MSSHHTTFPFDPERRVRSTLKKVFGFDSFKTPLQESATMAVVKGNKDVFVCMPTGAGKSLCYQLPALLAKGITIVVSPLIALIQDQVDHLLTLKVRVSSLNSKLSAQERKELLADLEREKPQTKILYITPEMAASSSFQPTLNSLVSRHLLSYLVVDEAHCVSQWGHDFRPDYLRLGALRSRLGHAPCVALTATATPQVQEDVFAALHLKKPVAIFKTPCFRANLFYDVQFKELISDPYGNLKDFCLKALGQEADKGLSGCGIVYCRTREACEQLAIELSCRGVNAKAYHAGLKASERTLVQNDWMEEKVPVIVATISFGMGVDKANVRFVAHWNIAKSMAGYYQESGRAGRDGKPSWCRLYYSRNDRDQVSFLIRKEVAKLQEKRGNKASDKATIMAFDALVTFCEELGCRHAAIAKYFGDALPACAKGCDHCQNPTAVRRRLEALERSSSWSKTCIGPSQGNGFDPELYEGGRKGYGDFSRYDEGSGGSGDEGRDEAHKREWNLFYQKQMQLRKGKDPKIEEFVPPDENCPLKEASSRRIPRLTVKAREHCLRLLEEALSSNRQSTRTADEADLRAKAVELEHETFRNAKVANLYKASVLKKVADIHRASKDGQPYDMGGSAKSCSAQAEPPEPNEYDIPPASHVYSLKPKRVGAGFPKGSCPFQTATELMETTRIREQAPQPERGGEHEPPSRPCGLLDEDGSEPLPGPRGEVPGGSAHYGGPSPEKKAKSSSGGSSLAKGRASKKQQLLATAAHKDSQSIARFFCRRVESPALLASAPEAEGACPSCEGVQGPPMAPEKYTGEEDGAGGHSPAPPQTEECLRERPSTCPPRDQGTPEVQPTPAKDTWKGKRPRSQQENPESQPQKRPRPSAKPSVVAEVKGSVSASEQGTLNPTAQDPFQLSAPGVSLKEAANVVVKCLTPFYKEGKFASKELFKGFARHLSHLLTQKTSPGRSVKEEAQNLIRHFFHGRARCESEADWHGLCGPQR
UniProt Q9H6W3: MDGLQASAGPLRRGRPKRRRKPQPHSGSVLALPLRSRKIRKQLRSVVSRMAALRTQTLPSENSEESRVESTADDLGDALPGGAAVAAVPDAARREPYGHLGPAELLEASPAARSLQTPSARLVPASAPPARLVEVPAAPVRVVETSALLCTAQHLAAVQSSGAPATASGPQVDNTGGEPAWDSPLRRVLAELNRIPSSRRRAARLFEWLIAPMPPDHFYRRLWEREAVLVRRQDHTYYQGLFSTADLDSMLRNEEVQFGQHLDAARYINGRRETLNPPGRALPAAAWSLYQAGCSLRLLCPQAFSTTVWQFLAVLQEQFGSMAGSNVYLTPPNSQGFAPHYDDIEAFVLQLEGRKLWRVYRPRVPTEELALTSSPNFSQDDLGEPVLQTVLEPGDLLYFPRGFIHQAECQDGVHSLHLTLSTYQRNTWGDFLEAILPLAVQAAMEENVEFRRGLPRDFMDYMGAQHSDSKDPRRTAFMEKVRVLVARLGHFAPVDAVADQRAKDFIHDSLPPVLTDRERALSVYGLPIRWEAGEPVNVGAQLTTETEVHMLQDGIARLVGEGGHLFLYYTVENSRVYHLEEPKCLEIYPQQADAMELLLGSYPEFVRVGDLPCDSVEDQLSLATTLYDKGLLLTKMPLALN
UniProt Q96E14: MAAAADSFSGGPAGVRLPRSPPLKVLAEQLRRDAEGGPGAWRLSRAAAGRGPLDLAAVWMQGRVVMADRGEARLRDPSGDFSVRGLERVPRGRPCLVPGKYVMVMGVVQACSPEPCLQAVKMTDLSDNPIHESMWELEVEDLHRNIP

How the values were obtained:
Assay in all cases: log2 fold change, soluble protein after heating vs DMSO (PISA); higher = thermal stabilisation; K562 cells, 10 uM, 30 min; active = over 0.2 and 3.5 SD of the protein, either way, in both replicates (recomputed)
[1] = compound: O=C1NC(=O)C(c2cnc3ccccn23)=C1c1cn2c3c(cc(F)cc13)CN(C(=O)N1CCCCC1)CC2
Outline: (§1)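 Thermal stability values are relative to control samples and come from duplicates. They are expressed as log2 fold changes. For measurement, K562 cells (2×10^6 cells/mL) received 10 μM compound for 30 min, and aliquots were heated for 3 min over 48°C-58°C, pooled, and extracted at 4°C in PBS with 0.5% NP-40. Soluble protein, the supernatant after 21,000xg for 90 min, was quantified by TMTpro 16plex LC-MS/MS with equalised channel sums.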

[2] = compound: NC(=O)Nc1cc(-c2cccc(F)c2)sc1C(=O)N[C@H]1CCCNC1
Outline: as §1

[3] = compound: NC1(c2ccc(-c3nc4ccn5c(=O)[nH]nc5c4cc3-c3ccccc3)cc2)CCC1
Outline: as §1

entinostat = compound: Nc1ccccc1NC(=O)c1ccc(CNC(=O)OCc2cccnc2)cc1 [entinostat]
Outline: as §1

silmitasertib = compound: O=C(O)c1ccc2c(c1)nc(Nc1cccc(Cl)c1)c1ccncc12 [silmitasertib]
Outline: as §1

[4] = compound: NCC(=O)Nc1ccc(-n2nc(C(F)(F)F)cc2-c2ccc3c(ccc4ccccc43)c2)cc1
Outline: as §1

vorinostat = compound: O=C(CCCCCCC(=O)Nc1ccccc1)NO [vorinostat]
Outline: as §1

citarinostat = compound: O=C(CCCCCCNC(=O)c1cnc(N(c2ccccc2)c2ccccc2Cl)nc1)NO [citarinostat]
Outline: as §1

[5] = compound: c1cc(OCCN2CCCCC2)cc(-c2n[nH]c3ccc(-c4nnc[nH]4)cc23)c1
Outline: as §1

entospletinib = compound: c1cn2cc(-c3ccc4cn[nH]c4c3)nc(Nc3ccc(N4CCOCC4)cc3)c2n1 [entospletinib]
Outline: as §1

[6] = compound: NC(=O)c1cnc(N[C@@H]2CCCC[C@@H]2N)nc1Nc1cccc(-n2nccn2)c1
Outline: as §1

Measured: log2 fold change

RIPOR1 isoform 4 (UniProt Q6ZS17)
inactive: [1] 0.302

RERE (UniProt Q9P2R6)
inactive: [2] 0.001 | [3] -0.161 | entinostat 0.107 | silmitasertib 0.089 | [1] -0.018

RIC8B isoform 1 (UniProt Q9NVN3)
inactive: [1] 0.123

RBM7 (UniProt Q9Y580)
inactive: [2] -0.208 | [3] 0.043 | [4] -0.144 | entinostat 0.066 | vorinostat 0.193 | citarinostat -0.077 | silmitasertib -0.03 | [1] 0.164 | [5] -0.156 | entospletinib 0.025

RNASEL (UniProt Q05823)
inactive: [3] 0.068 | vorinostat -0.403 | silmitasertib 0.087

RHBDD2 isoform 2 (UniProt Q6NTF9)
inactive: [6] -0.082 | [3] -0.153 | vorinostat 0.055 | citarinostat 0.036 | silmitasertib -0.011 | [1] 0.135 | [5] -0.01 | entospletinib -0.197

RNF185 (UniProt Q96GF1)
inactive: [6] -0.022 | [3] -0.072 | [4] -0.139 | vorinostat -0.28 | citarinostat -0.135 | silmitasertib 0.001 | [5] 0.072

RBP1 isoform 3 (UniProt P09455)
inactive: vorinostat -0.228

RC3H2 (UniProt Q9HBD1)
inactive: vorinostat -0.017 | [1] 0.031

RFX3 (UniProt P48380)
inactive: [2] -0.023 | entinostat 0.023 | citarinostat 0.04 | [5] 0.003 | entospletinib -0.176

RNF111 isoform 3 (UniProt Q6ZNA4)
inactive: vorinostat 0.051

RBMY1E (UniProt A6NEQ0)
inactive: [3] -0.246 | vorinostat 0.07 | citarinostat 0.063 | silmitasertib -0.156 | [5] -0.081

RFXANK (UniProt O14593)
inactive: vorinostat 0.04 | [1] 0.102

RNF139 (UniProt Q8WU17)
inactive: [2] 0.097 | [3] -0.078 | [4] -0.025 | entinostat -0.023 | vorinostat 0.012 | citarinostat -0.006 | silmitasertib 0.098 | [1] -0.017 | [5] -0.041 | entospletinib -0.029

RINT1 (UniProt Q6NUQ1)
inactive: [6] -0.074 | [3] -0.482 | [4] -0.038 | vorinostat -0.076 | citarinostat -0.095 | silmitasertib 0.293 | [1] 0.203 | [5] -0.148 | entospletinib 0.086

RFX7 (UniProt Q2KHR2)
inactive: [2] -0.081 | entinostat 0.033

RCBTB1 (UniProt Q8NDN9)
inactive: [2] -0.266 | entinostat -0.035 | [1] 0.273

RNASE7 (UniProt Q9H1E1)
inactive: [6] 0.639

RNF11 (UniProt Q9Y3C5)
inactive: citarinostat -0.1 | [5] -0.039 | entospletinib -0.034

RIMKLB (UniProt Q9ULI2)
inactive: [2] -0.172 | [3] -0.069 | entinostat 0.425 | citarinostat -0.081 | silmitasertib 0.166 | [1] -0.087 | [5] -0.01 | entospletinib 0.162

RNF24 isoform 2 (UniProt Q9Y225)
inactive: [4] 0.177 | vorinostat -0.18 | citarinostat -0.069 | [1] -0.107 | [5] -0.061 | entospletinib 0.026

RILPL1 (UniProt Q5EBL4)
inactive: [2] 0.013 | [3] 0.056 | [4] 0.026 | entinostat 0.035 | citarinostat 0.131 | silmitasertib 0.212 | [1] 0.06 | [5] -0.009 | entospletinib 0.106

RGCC (UniProt Q9H4X1)
inactive: [6] 0.045 | vorinostat -0.146

RNF130 (UniProt Q86XS8)
inactive: [3] -0.076 | citarinostat 0.037 | silmitasertib -0.153 | [5] 0.288 | entospletinib -0.28

RHD (UniProt Q02161)
inactive: [6] 0.039

RIT1 isoform 3 (UniProt Q92963)
inactive: vorinostat 0.138 | [1] -0.016

Two consecutive records from above:
RFX7 (UniProt Q2KHR2)
inactive: [2] -0.081 | entinostat 0.033

RCBTB1 (UniProt Q8NDN9)
inactive: [2] -0.266 | entinostat -0.035 | [1] 0.273

Going on with the list.

RNF141 (UniProt Q8WVD5)
inactive: [2] -0.152 | [4] -0.035 | entinostat -0.026 | vorinostat -0.084

RCL1 (UniProt Q5VZU2)
inactive: [6] -0.225 | [1] 0.257

RECQL5 (UniProt O94762)
inactive: [4] 0.048 | vorinostat 0.059

RNF169 (UniProt Q8NCN4)
inactive: vorinostat 0.187

RNF170 (UniProt Q96K19)
inactive: [6] -0.038 | [3] -0.045 | [4] -0.168 | vorinostat 0.06 | citarinostat 0.051 | silmitasertib -0.007 | [1] 0.03 | [5] -0.09 | entospletinib -0.051

RIOX1 (UniProt Q9H6W3)
inactive: vorinostat 0.467 | citarinostat -0.105 | [5] -0.344 | entospletinib 0.139

RIF1 (UniProt Q5UIP0)
inactive: [2] 0.286 | [4] 0.137 | entinostat 0.065 | vorinostat 0.144 | citarinostat -0.037 | [1] -0.295 | [5] 0.032 | entospletinib 0.163

RILPL2 (UniProt Q969X0)
inactive: [1] 0.067

RHBDD1 (UniProt Q8TEB9)
inactive: [2] -0.06 | [3] 0.115 | [4] 0.078 | entinostat -0.04 | vorinostat -0.153 | citarinostat 0.118 | silmitasertib 0.036 | [1] 0.016 | [5] 0.102 | entospletinib 0.042

RMI2 (UniProt Q96E14)
inactive: [6] -0.065 | [3] 0.192 | [4] 0.151 | silmitasertib -0.041

RBP4 (UniProt P02753)
inactive: [6] 0.014 | [3] 0.267 | [4] 0.256 | vorinostat 0.358 | citarinostat -0.15 | silmitasertib -0.224 | [5] 0.265 | entospletinib 0.06
